Compound in the test: Nc1ncnc2c1ncn2[C@@H]1O[C@H](COP(=O)(O)OP(=O)(O)OP(=O)(O)O)[C@@H](O)[C@H]1O [adenosine triphosphate]
Briefly: NP40-soluble protein abundance relative to vehicle (solubility fold change) (ratio); higher = more soluble protein in presence of ATP. In short, it runs like this:
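Each value is a fold change relative to the detergent-processed vehicle, calculated per replicate from vsn-normalised intensities. Jurkat crude lysate received eight concentrations (0.1 to 10 mM) for 10 min at room temperature and 3 min at 37 °C, then was solubilised in 0.8% NP40 with benzonase (60 min, 4 °C). The ultracentrifuged supernatant was TMT-labelled and run by LC-MS/MS in three independent experiments.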

The chains behind the UniProt entries cited, without tags or fusion partners. Where a name states a change or a piece, a line headed by the entry shows the natural chain unless it says otherwise.
UniProt P52564: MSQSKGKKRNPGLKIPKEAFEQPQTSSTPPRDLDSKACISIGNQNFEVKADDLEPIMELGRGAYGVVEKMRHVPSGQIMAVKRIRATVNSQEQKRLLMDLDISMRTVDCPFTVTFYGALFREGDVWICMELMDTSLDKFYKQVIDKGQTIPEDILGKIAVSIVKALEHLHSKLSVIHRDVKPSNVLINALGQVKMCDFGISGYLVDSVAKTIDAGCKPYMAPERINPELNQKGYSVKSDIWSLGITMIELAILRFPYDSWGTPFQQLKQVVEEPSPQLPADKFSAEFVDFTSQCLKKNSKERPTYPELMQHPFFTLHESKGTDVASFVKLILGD
UniProt P48634: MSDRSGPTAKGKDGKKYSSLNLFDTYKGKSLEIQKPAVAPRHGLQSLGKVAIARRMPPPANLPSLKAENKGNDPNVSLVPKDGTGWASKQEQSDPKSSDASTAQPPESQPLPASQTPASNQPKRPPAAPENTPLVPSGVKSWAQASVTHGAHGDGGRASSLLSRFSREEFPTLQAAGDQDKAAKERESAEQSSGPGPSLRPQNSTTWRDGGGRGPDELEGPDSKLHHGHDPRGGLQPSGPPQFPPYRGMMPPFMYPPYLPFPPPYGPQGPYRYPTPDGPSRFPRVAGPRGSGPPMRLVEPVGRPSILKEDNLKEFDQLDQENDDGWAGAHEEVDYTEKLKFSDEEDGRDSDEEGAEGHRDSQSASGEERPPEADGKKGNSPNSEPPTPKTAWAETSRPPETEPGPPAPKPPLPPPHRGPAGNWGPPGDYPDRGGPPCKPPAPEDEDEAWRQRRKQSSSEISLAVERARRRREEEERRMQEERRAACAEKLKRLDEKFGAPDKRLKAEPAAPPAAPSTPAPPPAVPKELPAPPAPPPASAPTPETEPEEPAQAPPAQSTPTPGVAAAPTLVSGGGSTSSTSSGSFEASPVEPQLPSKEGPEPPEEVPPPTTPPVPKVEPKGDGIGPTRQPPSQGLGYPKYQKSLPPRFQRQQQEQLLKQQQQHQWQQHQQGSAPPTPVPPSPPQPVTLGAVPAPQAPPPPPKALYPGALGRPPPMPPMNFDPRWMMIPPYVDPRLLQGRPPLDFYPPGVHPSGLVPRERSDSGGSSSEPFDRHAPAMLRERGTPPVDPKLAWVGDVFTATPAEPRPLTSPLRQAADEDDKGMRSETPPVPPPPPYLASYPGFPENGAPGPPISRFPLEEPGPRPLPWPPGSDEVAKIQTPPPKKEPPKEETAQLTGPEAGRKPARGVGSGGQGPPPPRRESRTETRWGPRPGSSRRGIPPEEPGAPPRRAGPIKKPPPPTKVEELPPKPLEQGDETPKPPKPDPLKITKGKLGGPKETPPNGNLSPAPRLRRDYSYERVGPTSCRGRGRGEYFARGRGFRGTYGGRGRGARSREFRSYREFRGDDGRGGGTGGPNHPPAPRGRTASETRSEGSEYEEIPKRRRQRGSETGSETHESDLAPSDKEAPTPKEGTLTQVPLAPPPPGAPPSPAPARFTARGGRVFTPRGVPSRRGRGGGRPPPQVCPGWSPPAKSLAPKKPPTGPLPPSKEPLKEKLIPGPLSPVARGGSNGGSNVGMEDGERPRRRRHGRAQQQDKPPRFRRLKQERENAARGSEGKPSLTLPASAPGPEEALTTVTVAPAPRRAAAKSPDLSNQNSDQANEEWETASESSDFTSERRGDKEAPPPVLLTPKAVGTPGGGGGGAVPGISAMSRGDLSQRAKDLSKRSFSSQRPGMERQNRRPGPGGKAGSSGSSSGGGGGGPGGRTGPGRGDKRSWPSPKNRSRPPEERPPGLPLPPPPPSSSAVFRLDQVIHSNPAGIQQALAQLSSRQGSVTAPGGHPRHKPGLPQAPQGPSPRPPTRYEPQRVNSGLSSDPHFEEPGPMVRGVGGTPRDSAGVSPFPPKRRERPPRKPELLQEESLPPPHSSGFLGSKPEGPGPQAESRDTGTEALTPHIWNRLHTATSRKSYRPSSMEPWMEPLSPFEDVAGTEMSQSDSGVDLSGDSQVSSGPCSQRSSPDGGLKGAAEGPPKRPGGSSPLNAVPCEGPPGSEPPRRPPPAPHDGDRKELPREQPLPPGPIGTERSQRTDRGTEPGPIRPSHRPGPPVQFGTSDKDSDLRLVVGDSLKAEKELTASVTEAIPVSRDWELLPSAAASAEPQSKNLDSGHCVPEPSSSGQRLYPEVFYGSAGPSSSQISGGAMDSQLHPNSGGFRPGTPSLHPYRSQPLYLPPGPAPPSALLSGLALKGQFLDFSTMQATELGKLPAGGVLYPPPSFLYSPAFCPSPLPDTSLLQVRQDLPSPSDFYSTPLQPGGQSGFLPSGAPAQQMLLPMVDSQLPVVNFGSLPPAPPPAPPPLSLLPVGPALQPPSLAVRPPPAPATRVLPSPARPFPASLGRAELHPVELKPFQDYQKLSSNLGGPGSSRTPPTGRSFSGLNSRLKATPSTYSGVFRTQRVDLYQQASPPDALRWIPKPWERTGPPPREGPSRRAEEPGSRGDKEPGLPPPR
UniProt P47224: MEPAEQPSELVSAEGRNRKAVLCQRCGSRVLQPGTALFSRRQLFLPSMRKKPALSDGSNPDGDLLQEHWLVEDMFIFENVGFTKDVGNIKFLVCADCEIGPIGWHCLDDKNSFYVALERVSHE
UniProt P43897: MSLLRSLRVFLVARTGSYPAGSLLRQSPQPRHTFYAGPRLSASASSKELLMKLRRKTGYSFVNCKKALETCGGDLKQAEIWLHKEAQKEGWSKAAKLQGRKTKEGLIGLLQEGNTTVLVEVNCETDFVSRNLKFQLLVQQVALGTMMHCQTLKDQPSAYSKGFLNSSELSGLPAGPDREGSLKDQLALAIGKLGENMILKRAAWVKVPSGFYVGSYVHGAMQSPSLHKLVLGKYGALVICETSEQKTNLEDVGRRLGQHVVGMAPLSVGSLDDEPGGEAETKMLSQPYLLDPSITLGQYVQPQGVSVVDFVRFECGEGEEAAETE
UniProt P41214: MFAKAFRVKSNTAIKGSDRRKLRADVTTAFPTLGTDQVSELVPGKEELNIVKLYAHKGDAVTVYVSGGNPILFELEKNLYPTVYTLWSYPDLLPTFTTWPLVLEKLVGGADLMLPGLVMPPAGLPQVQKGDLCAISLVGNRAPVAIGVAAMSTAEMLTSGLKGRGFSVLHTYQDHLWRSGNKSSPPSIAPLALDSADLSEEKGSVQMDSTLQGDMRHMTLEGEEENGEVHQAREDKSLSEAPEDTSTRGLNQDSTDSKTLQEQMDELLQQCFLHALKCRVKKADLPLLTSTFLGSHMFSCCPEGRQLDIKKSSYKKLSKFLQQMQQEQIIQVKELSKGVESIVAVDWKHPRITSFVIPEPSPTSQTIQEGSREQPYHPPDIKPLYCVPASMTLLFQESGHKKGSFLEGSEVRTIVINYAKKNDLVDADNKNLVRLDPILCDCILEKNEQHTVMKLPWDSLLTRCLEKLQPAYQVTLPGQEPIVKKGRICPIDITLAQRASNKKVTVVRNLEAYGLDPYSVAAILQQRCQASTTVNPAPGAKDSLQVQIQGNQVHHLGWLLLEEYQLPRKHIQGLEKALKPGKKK
UniProt P43403: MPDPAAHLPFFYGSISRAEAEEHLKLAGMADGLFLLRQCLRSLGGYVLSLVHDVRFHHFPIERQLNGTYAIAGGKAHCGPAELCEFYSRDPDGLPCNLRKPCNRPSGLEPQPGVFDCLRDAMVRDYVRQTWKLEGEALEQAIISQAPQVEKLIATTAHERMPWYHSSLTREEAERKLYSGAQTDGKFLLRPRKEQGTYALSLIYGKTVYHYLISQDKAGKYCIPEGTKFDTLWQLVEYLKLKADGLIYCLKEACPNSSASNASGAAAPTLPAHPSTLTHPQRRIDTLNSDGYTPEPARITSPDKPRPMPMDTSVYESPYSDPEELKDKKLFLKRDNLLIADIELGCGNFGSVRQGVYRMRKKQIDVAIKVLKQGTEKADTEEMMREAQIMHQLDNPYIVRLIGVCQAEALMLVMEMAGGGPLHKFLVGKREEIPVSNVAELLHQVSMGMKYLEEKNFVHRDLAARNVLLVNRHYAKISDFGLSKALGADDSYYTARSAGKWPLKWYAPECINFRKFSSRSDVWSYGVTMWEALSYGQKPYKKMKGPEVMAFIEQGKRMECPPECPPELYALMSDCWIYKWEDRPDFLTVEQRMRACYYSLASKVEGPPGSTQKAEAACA
UniProt P51812, whole entry: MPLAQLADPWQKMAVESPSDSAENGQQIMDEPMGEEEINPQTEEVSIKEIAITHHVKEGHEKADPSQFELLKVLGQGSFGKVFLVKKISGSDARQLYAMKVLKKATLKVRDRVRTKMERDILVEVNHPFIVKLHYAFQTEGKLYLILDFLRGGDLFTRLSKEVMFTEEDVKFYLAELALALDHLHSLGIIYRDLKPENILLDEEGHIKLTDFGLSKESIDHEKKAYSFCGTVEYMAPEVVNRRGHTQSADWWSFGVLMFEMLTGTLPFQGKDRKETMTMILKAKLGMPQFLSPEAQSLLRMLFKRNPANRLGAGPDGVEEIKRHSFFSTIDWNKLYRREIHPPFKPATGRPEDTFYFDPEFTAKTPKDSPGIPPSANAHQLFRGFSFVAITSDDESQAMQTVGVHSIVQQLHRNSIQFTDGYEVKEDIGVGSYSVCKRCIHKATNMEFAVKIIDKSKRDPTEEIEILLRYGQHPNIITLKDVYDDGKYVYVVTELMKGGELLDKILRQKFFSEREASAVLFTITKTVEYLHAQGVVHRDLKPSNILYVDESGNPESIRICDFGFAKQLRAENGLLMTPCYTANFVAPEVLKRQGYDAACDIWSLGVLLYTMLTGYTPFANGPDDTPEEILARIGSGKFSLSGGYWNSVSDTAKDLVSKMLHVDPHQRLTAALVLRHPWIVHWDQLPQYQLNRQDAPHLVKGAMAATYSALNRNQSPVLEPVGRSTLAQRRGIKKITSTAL
UniProt P49427: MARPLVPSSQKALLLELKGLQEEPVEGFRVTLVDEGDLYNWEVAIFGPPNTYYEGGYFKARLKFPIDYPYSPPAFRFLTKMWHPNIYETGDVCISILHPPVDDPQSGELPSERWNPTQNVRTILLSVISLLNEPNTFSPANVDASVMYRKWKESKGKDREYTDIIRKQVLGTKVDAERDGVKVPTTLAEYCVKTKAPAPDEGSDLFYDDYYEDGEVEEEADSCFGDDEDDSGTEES
UniProt P50548: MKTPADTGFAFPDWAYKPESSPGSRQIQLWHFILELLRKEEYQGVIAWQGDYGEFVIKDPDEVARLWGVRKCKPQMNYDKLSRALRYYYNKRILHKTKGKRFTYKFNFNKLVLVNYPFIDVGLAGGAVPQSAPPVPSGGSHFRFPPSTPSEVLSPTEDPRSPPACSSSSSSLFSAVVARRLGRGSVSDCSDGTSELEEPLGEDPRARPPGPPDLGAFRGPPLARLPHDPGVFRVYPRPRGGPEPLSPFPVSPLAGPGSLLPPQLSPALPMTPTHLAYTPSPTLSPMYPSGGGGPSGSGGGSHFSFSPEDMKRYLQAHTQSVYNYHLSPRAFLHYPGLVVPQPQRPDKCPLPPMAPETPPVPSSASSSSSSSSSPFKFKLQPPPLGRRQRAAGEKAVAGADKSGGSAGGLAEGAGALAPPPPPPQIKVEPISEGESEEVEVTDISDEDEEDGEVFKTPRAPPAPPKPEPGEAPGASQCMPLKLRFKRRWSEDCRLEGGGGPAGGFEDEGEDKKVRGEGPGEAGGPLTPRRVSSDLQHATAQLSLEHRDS
UniProt P49458: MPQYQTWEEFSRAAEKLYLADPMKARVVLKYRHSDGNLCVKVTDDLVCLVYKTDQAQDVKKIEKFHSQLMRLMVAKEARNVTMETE
UniProt P48454, whole entry: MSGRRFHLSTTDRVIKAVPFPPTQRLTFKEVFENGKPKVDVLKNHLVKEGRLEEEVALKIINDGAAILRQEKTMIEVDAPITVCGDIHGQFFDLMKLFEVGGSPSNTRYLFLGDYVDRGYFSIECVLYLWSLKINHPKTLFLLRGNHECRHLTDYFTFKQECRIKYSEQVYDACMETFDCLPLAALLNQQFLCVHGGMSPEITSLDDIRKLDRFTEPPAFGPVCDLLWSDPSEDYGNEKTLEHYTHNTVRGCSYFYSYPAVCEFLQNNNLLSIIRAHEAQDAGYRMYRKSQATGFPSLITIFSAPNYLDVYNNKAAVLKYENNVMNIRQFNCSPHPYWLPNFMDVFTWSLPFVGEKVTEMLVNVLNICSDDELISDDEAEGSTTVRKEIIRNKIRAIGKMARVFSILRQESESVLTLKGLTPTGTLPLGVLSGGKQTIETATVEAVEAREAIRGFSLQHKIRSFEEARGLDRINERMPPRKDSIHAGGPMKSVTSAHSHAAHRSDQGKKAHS
UniProt P47756, whole entry: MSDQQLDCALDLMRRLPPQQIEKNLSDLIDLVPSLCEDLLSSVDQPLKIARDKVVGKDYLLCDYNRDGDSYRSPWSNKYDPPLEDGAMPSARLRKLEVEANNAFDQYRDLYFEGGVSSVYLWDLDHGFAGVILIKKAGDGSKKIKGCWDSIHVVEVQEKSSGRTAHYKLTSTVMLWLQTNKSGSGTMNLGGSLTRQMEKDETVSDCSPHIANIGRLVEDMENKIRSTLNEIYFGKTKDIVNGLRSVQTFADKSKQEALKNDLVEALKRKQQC

± gives the standard deviation of the averaged measurements. The list shows a part of the results, in another mix than the full data.

UniProt P52564: the NP40-soluble protein abundance amounted to 1.01 ± 0.057 (concentration: 1mM); 0.998 ± 0.047 (concentration: 2mM); 1.01 ± 0.056 (concentration: 4mM); 0.98 ± 0.057 (concentration: 6mM); 0.98 ± 0.043 (concentration: 8mM); 0.965 ± 0.02 (concentration: 10mM).
For the target RPL21 (UniProt P46778), the NP40-soluble protein abundance runs as follows: (concentration: 1mM) 0.958 ± 0.086; (concentration: 2mM) 0.911 ± 0.13; (concentration: 4mM) 0.842 ± 0.13; (concentration: 6mM) 0.819 ± 0.14; (concentration: 8mM) 0.527 ± 0.039; (concentration: 10mM) 0.872 ± 0.11.
As to UniProt P48634 and related entries, the NP40-soluble protein abundance reads like this: (concentration: 1mM) 1.15 ± 0.086; (concentration: 2mM) 1.23 ± 0.077; (concentration: 4mM) 1.34 ± 0.074; (concentration: 6mM) 1.52 ± 0.095; (concentration: 8mM) 1.53 ± 0.054; (concentration: 10mM) 1.67 ± 0.059.
For RABIF (UniProt P47224), the NP40-soluble protein abundance by setting is: (concentration: 1mM) 0.939 ± 0.026; (concentration: 2mM) 0.986 ± 0.014; (concentration: 4mM) 0.938 ± 0.042; (concentration: 6mM) 0.936 ± 0.027; (concentration: 8mM) 0.912 ± 0.046; (concentration: 10mM) 0.905 ± 0.0093.
In the case of TSFM (UniProt P43897), the NP40-soluble protein abundance is, setting by setting: (concentration: 1mM) 0.963 ± 0.083; (concentration: 2mM) 0.972 ± 0.024; (concentration: 4mM) 0.953 ± 0.057; (concentration: 6mM) 0.982 ± 0.065; (concentration: 8mM) 0.938 ± 0.026; (concentration: 10mM) 0.928 ± 0.032.
Consider UniProt P41214, for which the NP40-soluble protein abundance reads like this: (concentration: 1mM) 1.02 ± 0.027; (concentration: 2mM) 1 ± 0.033; (concentration: 4mM) 0.992 ± 0.022; (concentration: 6mM) 1.01 ± 0.052; (concentration: 8mM) 0.998 ± 0.02; (concentration: 10mM) 1 ± 0.027.
For the target UniProt P48729 and related entries, the NP40-soluble protein abundance is, setting by setting: (concentration: 1mM) 1.12 ± 0.11; (concentration: 2mM) 1.08 ± 0.067; (concentration: 4mM) 1.15 ± 0.095; (concentration: 6mM) 1.08 ± 0.14; (concentration: 8mM) 1.25 ± 0.14; (concentration: 10mM) 1.21 ± 0.077.
Regarding ZAP70 (UniProt P43403), the NP40-soluble protein abundance by setting is: (concentration: 1mM) 1.03 ± 0.091; (concentration: 2mM) 1.02 ± 0.097; (concentration: 4mM) 0.979 ± 0.074; (concentration: 6mM) 0.966 ± 0.15; (concentration: 8mM) 1.01 ± 0.076; (concentration: 10mM) 0.989 ± 0.073.
Turning to UniProt P51812, the NP40-soluble protein abundance is, setting by setting: (concentration: 1mM) 1.09 ± 0.15; (concentration: 2mM) 1.04 ± 0.084; (concentration: 4mM) 1.03 ± 0.075; (concentration: 6mM) 0.952 ± 0.12; (concentration: 8mM) 1.05 ± 0.078; (concentration: 10mM) 1.02 ± 0.056.
As to CDC34 (UniProt P49427), the NP40-soluble protein abundance by setting is: (concentration: 1mM) 0.98 ± 0.11; (concentration: 2mM) 0.94 ± 0.025; (concentration: 4mM) 1.02 ± 0.051; (concentration: 6mM) 1.01 ± 0.065; (concentration: 8mM) 0.916 ± 0.041; (concentration: 10mM) 0.985 ± 0.072.
Turning to UniProt P50548 and related entries, the NP40-soluble protein abundance is, setting by setting: (concentration: 1mM) 1.08 ± 0.045; (concentration: 2mM) 1.09 ± 0.085; (concentration: 4mM) 0.998 ± 0.13; (concentration: 6mM) 0.967 ± 0.077; (concentration: 8mM) 0.959 ± 0.035; (concentration: 10mM) 1.06 ± 0.13.
Regarding UniProt P36956 and related entries, the NP40-soluble protein abundance by setting is: (concentration: 1mM) 0.959 ± 0.042; (concentration: 2mM) 1.02 ± 0.076; (concentration: 4mM) 1.02 ± 0.13; (concentration: 6mM) 1 ± 0.12; (concentration: 8mM) 0.969 ± 0.082; (concentration: 10mM) 0.983 ± 0.11.
On to SRP9 (UniProt P49458), for which the NP40-soluble protein abundance (concentration: 1mM) was 0.979 ± 0.027; the NP40-soluble protein abundance (concentration: 2mM) turned out to be 0.968 ± 0.048; the NP40-soluble protein abundance (concentration: 4mM) stood at 0.947 ± 0.031; the NP40-soluble protein abundance (concentration: 6mM) stood at 0.995 ± 0.05; the NP40-soluble protein abundance (concentration: 8mM) was determined as 0.992 ± 0.016; the NP40-soluble protein abundance (concentration: 10mM) came out at 0.951 ± 0.079.
Take NOTCH1 (UniProt P46531): the NP40-soluble protein abundance reads like this: (concentration: 1mM) 0.966 ± 0.064; (concentration: 2mM) 0.974 ± 0.053; (concentration: 4mM) 0.945 ± 0.027; (concentration: 6mM) 0.993 ± 0.02; (concentration: 8mM) 0.926 ± 0.036; (concentration: 10mM) 0.949 ± 0.018.
In the case of RPL34 (UniProt P49207), the NP40-soluble protein abundance turned out to be 0.911 ± 0.13 (concentration: 1mM); 0.837 ± 0.12 (concentration: 2mM); 0.788 ± 0.12 (concentration: 4mM); 0.738 ± 0.1 (concentration: 6mM); 0.554 ± 0.11 (concentration: 8mM); 0.775 ± 0.061 (concentration: 10mM).
Consider UniProt P48454 and related entries, for which the NP40-soluble protein abundance runs as follows: (concentration: 1mM) 1.04 ± 0.062; (concentration: 2mM) 0.995 ± 0.033; (concentration: 4mM) 0.959 ± 0.033; (concentration: 6mM) 0.97 ± 0.05; (concentration: 8mM) 1 ± 0.048; (concentration: 10mM) 1 ± 0.044.
UniProt P47756-2: the NP40-soluble protein abundance was determined as 0.99 ± 0.031 (concentration: 1mM); 0.989 ± 0.0099 (concentration: 2mM); 0.964 ± 0.022 (concentration: 4mM); 1.01 ± 0.017 (concentration: 6mM); 0.955 ± 0.024 (concentration: 8mM); 0.958 ± 0.021 (concentration: 10mM).
